The list is a part of this screen's results and no random one: it is rich in T/C values a quarter to a half above the control, in often repeated tests (any T/C) and in doses without a T/C. Further doses and runs are listed elsewhere. T/C: endpoint of the treated group in % of that of the vehicle group. Some doses have a count of surviving animals in place of a T/C: the source holds a T/C of zero for them, seemingly a mark for toxic or unscored doses. Some doses without a T/C left all or most animals alive at the check, yet need not have been tolerated: the source hardly ever lists a survival T/C far under the control, and the zero likely stands for such cases as well. Survivors were counted at the toxicity check, usually on the fifth day, unless a day is given; later deaths do not show. Schedule codes are those of the source, taken here to give the interval after Q, in days (D) or hours (H), and the number of doses after X. Some schedules carry Z or #; the key to these is not given. For survival time, this PubChem deposit counts one and a half times the control or more as active, and values a quarter to a half above the control carry no call in these data; other NCI protocols may use other cut-offs. Some entries hold several experiments; the values are given in rising order. Some T/C values are followed by the survivors on the day toxicity was checked, most often the fifth; where none is given, no animal had died by that day.
Tested on: L1210 leukemia ip in BDF1 mice, survival T/C
Experiment: NCI In Vivo Anticancer Drug Screen. Data for tumor model L1210 Leukemia (intraperitoneal) in B6D2F1 (BDF1) mice
Details: T/C endpoint: mean survival time, higher T/C = longer survival
[1] = dose: 400.0 mg/kg/injection, schedule: Q01DX009 (ip), vehicle: saline with Tween-80
[2] = dose: 150.0 mg/kg/injection, schedule: Q01DX001 (ip), vehicle: other

**Q.** Which results are given for `C/C=C/S(=O)(=O)c1ccccc1`?
**A.** survivor count (dose: 150.0 mg/kg/injection, schedule: Q01DX001 (ip), vehicle: carboxymethylcellulose (CMC)): 3 of 6; survivor count (dose: 300.0 mg/kg/injection, schedule: Q01DX001 (ip), vehicle: carboxymethylcellulose (CMC)): 2 of 6

**Q.** For `Cc1c(O)cccc1F`, which survivor count (dose: 200.0 mg/kg/injection, schedule: Q04DX002 (ip), vehicle: Klucel (hydroxypropylcellulose) (HPC)) is on record?
**A.** The survivor count was 1 of 3.

**Q.** What about the survivor count (dose: 400.0 mg/kg/injection, schedule: Q04DX002 (ip), vehicle: Klucel (hydroxypropylcellulose) (HPC)) of the same compound?
**A.** Its survivor count is 0 of 3.

**Q.** `Br/C=C(\Br)CBr` was tested. Which survivor count (dose: 300.0 mg/kg/injection, schedule: Q01DX001 (sc), vehicle: olive oil, sesame oil, peanut oil) did it give?
**A.** Its survivor count is 0 of 6.

**Q.** With `CCNC(=O)N(Cc1ccccc1)Cc1ccccc1` as the compound, how does the survivor count [1] read?
**A.** Its survivor count is 1 of 6.

**Q.** For `COC1OC(COC(=O)c2ccc([N+](=O)[O-])cc2)C(OC(=O)c2ccc([N+](=O)[O-])cc2)C1OCc1ccccc1` (configuration not stated), which survivor count (dose: 75.0 mg/kg/injection, schedule: Q01DX001 (ip), vehicle: other) is on record?
**A.** The survivor count was 6 of 6.

**Q.** What about the survivor count [2] of the same compound?
**A.** The survivor count was 6 of 6.

**Q.** Which survivor count (dose: 50.0 mg/kg/injection, schedule: Q04DX003 (ip), vehicle: Klucel (hydroxypropylcellulose) (HPC)) does the source give for `O=[N+]([O-])c1ccc([N+](=O)[O-])c2nsnc12` here?
**A.** Its survivor count is 6 of 6.

**Q.** What about the survivor count (dose: 100.0 mg/kg/injection, schedule: Q04DX003 (ip), vehicle: Klucel (hydroxypropylcellulose) (HPC)) of the same compound?
**A.** The survivor count was 1 of 6.

**Q.** What about the survivor count (dose: 200.0 mg/kg/injection, schedule: Q04DX003 (ip), vehicle: Klucel (hydroxypropylcellulose) (HPC)) of the same compound?
**A.** The survivor count was 0 of 6.

**Q.** And the survivor count (dose: 400.0 mg/kg/injection, schedule: Q04DX003 (ip), vehicle: Klucel (hydroxypropylcellulose) (HPC))?
**A.** Its survivor count is 0 of 6.

**Q.** For `Cc1ccc(CCNc2ncnc(Cl)c2N)cc1`, which survivor count (dose: 200.0 mg/kg/injection, schedule: Q01DX001 (ip), vehicle: other) is on record?
**A.** Its survivor count is 0 of 4.

**Q.** And the survivor count (dose: 400.0 mg/kg/injection, schedule: Q01DX001 (ip), vehicle: other)?
**A.** Its survivor count is 0 of 4.

**Q.** With `CC1(c2ccncc2)OCCO1` as the compound, how does the survivor count (dose: 400.0 mg/kg/injection, schedule: Q01DX001 (ip), vehicle: saline) read?
**A.** The survivor count was 3 of 6.

**Q.** Which survivor count (dose: 120.0 mg/kg/injection, schedule: Q01DX Z (ip), vehicle: methylcellulose (MC)) does the source give for `NC(N)=N/N=C(\c1ccc(Cl)cc1)C1CC1` here?
**A.** The survivor count was 0 of 6.

**Q.** What about the survivor count (dose: 120.0 mg/kg/injection, schedule: Q01DX Z (oral), vehicle: methylcellulose (MC)) of the same compound?
**A.** The survivor count was 5 of 6.

**Q.** And the survivor count (dose: 625.0 mg/kg/injection, schedule: Q01DX Z (oral), vehicle: methylcellulose (MC))?
**A.** Its survivor count is 5 of 7.

**Q.** `CN(N=O)C(=O)Nc1ccc(NC(=O)N(C)N=O)cc1` was tested. Which T/C (dose: 20.0 mg/kg/injection, schedule: Q01DX Z (ip), vehicle: carboxymethylcellulose (CMC)) did it give?
**A.** The T/C was 138 % of control.

**Q.** And the T/C (dose: 90.0 mg/kg/injection, schedule: Q01DX001 (ip), vehicle: carboxymethylcellulose (CMC))?
**A.** The T/C was 127 % of control.

**Q.** What about the T/C (dose: 180.0 mg/kg/injection, schedule: Q01DX001 (ip), vehicle: carboxymethylcellulose (CMC)) of the same compound?
**A.** The T/C was 134 % of control.

**Q.** And the survivor count (dose: 720.0 mg/kg/injection, schedule: Q01DX001 (ip), vehicle: carboxymethylcellulose (CMC))?
**A.** The survivor count was 1 of 10.

**Q.** For `N/C(=N\O)c1ccc(Cl)cc1`, which survivor count (dose: 400.0 mg/kg/injection, schedule: Q04DX003 (ip), vehicle: saline with Tween-80) is on record?
**A.** The survivor count was 2 of 6.

**Q.** For `CCCCCCC(=O)N(C(C)C)C(C)C`, which survivor count (dose: 400.0 mg/kg/injection, schedule: Q01DX009 (ip), vehicle: carboxymethylcellulose (CMC)) is on record?
**A.** The survivor count was 1 of 3.

**Q.** What about the survivor count (dose: 400.0 mg/kg/injection, schedule: Q04DX003 (ip), vehicle: carboxymethylcellulose (CMC)) of the same compound?
**A.** Its survivor count is 5 of 6.

**Q.** Which survivor count [2] does the source give for `CCCCC(CCCC)NCC(C)OC(=O)c1ccc(N)cc1` (configuration not stated) here?
**A.** The survivor count was 0 of 6.

**Q.** And the survivor count (dose: 300.0 mg/kg/injection, schedule: Q01DX001 (ip), vehicle: other)?
**A.** The survivor count was 0 of 6.

**Q.** With `CCC1(O)CC(OC2CC(NC)C(OC3CC(O)C(OC4CC(O)C(O)C(C)O4)C(C)O3)C(C)O2)c2c(cc3c(c2O)C(=O)c2c(O)ccc(O)c2C3=O)C1C(=O)OC` (configuration not stated) as the compound, how does the T/C (dose: 51.2 mg/kg/injection, schedule: Q01DX001 (ip), vehicle: saline) read?
**A.** Its T/C is 129 % of control [5 of 6 alive].

**Q.** How did the T/C (dose: 31.0 mg/kg/injection, schedule: Q01DX Z (ip), vehicle: carboxymethylcellulose (CMC)) turn out when `CCCCNC(=O)c1cc(NC(=O)Nc2ccc(C3=NCCN3)cc2)cc(NC(=O)Nc2ccc(C3=NCCN3)cc2)c1` was run?
**A.** Its T/C is 126 and 132 % of control.

**Q.** And the T/C (dose: 62.0 mg/kg/injection, schedule: Q01DX Z (ip), vehicle: carboxymethylcellulose (CMC))?
**A.** Its T/C is 131 % of control.

**Q.** And the survivor count (dose: 500.0 mg/kg/injection, schedule: Q01DX Z (ip), vehicle: carboxymethylcellulose (CMC))?
**A.** The survivor count was 2 of 6.

**Q.** `CC1CN=C(c2ccc(Br)cc2)O1` (configuration not stated) was tested. Which survivor count [1] did it give?
**A.** The survivor count was 2 of 6.

— PubChem BioAssay AID248 (DTP/NCI, 2004)
